doi:10.1101/2023.08.05.552118
These are yes or no findings as the source states them, for the method shown. Binding seen in cells or lysates may run through a third protein. These calls come from enrichment with a bait or labelling near it, and not all partners need be listed. For part of these data: A no says only that the protein was not detected with the bait.

Sequences of proteins named here, by UniProt entry; tags and fusion partners are left off.
UniProt Q63HN8: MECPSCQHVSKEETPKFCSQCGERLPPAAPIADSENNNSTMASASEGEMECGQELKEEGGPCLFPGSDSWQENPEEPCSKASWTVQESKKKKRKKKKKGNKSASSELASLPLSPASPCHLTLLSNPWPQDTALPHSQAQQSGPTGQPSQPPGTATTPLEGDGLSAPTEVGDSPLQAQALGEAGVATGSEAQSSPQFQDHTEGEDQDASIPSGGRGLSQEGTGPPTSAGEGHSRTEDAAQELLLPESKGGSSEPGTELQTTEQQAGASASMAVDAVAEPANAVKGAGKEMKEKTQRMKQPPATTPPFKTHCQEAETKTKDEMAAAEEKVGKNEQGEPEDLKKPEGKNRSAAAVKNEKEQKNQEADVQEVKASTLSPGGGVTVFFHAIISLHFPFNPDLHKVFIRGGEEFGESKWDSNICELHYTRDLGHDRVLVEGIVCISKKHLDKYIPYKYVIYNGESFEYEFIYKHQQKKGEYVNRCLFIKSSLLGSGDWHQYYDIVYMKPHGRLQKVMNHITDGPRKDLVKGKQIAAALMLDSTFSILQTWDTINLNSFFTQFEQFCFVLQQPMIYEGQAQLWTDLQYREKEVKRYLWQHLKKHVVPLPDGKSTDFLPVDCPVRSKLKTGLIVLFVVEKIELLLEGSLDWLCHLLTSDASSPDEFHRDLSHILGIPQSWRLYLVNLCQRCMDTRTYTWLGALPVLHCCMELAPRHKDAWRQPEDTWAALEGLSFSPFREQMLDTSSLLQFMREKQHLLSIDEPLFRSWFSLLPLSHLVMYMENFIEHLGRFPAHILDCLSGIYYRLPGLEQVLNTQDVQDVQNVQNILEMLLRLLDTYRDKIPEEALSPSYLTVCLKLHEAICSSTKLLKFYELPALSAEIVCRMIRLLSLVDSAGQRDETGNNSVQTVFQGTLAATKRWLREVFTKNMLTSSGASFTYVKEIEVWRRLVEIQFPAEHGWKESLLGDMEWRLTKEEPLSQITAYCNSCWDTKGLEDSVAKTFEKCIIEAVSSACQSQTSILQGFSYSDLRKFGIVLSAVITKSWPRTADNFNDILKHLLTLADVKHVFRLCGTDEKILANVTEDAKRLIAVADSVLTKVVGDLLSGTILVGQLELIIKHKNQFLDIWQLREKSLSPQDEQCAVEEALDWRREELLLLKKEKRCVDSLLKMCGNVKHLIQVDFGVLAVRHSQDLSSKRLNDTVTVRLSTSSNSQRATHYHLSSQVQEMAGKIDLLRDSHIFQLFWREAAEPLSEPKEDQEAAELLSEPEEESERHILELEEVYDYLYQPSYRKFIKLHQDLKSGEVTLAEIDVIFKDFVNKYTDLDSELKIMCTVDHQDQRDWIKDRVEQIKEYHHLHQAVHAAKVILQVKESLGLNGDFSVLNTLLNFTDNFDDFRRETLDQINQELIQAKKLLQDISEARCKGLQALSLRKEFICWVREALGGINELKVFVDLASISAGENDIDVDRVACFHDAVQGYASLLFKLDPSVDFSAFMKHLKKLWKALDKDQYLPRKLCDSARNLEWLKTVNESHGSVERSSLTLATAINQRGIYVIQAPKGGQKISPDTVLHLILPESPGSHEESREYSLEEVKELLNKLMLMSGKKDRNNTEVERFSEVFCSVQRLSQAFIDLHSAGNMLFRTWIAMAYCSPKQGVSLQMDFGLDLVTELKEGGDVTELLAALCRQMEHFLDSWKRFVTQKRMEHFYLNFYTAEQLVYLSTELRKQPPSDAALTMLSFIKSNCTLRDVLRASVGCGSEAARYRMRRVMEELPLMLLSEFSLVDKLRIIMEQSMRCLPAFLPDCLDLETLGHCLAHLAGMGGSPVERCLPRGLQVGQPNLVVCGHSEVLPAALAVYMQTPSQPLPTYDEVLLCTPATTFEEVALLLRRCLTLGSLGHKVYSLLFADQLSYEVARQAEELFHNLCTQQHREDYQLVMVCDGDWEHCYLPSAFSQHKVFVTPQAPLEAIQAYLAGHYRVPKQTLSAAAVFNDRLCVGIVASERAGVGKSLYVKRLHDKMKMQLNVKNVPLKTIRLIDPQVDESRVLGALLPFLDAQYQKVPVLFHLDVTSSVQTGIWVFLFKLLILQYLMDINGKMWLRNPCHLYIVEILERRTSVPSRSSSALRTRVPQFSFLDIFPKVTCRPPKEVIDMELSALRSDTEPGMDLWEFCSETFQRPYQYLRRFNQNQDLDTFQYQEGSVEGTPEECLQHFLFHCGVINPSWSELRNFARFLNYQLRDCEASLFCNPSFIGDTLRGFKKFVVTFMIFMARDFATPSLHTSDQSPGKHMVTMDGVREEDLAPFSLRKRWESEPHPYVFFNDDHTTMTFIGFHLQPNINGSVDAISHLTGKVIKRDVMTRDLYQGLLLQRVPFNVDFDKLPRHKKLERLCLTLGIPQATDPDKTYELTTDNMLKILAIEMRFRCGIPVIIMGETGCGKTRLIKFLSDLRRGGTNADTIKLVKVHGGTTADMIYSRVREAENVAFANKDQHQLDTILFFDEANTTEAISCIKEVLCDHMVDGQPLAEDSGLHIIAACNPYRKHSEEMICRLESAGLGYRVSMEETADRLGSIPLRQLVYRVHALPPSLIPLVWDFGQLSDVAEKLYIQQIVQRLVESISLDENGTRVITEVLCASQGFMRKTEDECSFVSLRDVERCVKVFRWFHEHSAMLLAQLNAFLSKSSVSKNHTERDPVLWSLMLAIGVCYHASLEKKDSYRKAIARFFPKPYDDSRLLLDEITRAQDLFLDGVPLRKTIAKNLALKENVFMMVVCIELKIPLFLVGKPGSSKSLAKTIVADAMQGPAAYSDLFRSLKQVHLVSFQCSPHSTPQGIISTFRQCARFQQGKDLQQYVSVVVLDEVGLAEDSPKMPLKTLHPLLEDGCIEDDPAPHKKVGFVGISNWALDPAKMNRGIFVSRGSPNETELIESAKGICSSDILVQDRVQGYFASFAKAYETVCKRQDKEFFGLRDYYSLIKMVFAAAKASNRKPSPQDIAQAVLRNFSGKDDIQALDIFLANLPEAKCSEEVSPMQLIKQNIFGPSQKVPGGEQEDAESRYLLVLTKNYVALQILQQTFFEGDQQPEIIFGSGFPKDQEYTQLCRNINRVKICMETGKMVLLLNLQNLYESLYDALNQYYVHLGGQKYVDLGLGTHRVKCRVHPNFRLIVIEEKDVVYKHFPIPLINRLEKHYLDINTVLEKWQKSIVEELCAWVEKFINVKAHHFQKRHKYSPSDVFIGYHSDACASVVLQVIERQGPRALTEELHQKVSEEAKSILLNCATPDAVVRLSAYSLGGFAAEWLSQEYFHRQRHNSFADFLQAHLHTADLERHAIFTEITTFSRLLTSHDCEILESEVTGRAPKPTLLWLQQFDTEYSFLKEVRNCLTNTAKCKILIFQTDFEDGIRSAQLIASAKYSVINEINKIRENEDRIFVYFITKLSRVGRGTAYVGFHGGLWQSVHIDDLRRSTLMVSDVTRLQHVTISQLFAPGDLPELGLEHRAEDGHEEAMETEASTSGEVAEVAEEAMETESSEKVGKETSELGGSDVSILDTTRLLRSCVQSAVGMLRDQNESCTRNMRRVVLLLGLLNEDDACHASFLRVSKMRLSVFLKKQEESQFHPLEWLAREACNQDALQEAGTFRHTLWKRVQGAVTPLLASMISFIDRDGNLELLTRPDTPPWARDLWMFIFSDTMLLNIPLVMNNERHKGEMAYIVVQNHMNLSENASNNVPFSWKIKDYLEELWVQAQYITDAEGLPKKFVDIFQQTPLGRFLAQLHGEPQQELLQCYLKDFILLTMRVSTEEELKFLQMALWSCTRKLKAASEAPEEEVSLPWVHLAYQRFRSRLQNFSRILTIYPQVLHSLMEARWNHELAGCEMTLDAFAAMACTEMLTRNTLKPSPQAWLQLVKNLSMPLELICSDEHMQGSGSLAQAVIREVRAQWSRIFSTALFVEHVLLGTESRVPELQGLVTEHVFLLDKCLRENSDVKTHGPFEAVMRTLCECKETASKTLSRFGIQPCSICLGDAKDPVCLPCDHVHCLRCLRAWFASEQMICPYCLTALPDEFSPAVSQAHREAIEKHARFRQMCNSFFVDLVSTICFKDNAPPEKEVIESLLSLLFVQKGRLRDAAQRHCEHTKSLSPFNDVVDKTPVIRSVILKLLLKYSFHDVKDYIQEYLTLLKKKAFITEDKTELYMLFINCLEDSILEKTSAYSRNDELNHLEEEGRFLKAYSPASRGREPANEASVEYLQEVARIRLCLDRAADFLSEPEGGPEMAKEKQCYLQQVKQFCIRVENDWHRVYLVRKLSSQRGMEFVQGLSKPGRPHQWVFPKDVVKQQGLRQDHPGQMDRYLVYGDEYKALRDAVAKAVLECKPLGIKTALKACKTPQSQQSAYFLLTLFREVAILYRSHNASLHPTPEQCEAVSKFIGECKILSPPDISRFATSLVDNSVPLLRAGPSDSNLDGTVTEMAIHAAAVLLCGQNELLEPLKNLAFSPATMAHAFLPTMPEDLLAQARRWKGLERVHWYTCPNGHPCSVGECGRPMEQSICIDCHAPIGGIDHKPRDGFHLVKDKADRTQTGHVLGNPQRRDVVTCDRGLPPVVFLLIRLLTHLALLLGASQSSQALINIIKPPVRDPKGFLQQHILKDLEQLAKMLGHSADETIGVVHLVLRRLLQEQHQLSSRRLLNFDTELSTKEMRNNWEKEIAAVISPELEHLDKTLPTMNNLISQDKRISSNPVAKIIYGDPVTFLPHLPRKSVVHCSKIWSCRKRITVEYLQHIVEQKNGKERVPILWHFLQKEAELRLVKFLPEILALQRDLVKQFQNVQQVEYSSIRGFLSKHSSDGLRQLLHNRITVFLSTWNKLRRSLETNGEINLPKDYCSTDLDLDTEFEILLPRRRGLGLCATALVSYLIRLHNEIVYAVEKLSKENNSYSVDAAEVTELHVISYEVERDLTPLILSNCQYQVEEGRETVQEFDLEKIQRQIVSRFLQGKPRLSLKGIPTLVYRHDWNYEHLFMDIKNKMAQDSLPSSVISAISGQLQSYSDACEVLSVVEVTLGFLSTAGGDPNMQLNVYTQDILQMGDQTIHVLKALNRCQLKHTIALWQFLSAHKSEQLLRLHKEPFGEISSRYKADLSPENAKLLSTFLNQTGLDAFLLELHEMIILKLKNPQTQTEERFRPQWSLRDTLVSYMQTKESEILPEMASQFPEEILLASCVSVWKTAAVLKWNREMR
UniProt O95819: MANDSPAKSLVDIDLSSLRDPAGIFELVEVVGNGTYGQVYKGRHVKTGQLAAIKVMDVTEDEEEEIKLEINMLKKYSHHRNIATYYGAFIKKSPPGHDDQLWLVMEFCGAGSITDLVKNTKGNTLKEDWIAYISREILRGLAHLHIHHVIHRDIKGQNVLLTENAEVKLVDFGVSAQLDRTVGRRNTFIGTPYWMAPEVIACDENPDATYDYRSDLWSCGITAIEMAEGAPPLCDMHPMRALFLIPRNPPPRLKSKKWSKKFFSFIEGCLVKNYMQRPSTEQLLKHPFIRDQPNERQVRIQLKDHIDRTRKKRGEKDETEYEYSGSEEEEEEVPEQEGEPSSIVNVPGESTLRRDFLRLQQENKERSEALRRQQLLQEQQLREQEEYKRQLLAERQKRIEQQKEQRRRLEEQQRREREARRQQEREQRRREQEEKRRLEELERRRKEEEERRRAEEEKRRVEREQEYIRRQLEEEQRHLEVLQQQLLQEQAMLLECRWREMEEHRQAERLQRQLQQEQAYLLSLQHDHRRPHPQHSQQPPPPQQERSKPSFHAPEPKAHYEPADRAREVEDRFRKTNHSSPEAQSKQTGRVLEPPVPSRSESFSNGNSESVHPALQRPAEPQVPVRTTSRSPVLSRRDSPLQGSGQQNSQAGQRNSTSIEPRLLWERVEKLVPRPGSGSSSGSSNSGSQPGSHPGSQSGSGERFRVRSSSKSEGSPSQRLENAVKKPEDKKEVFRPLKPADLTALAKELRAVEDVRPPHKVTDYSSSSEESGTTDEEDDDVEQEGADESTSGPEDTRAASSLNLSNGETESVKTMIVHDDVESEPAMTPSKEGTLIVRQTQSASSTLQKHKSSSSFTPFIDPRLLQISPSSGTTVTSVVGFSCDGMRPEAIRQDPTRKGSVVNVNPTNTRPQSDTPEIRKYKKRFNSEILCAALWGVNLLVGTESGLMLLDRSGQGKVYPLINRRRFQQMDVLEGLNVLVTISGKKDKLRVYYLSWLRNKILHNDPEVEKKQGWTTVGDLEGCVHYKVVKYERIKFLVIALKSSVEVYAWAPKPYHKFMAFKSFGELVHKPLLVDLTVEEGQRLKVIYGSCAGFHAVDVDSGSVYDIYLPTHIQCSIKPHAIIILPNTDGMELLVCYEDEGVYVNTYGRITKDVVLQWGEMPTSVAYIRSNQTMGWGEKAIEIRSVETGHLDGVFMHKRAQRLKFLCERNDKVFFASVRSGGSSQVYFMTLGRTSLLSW

B1: SPATA2 (protein, UniProt Q9UM82 1-520)
chain: MGKPSSMDTKFKDDLFRKYVQFHESKVDTTTSRQRPGSDECLRVAASTLLSLHKVDPFYRFRLIQFYEVVESSLRSLSSSSLRALHGAFSMLETVGINLFLYPWKKEFRSIKTYTGPFVYYVKSTLLEEDIRAILSCMGYTPELGTAYKLRELVETLQVKMVSFELFLAKVECEQMLEIHSQVKDKGYSELDIVSERKSSAEDVRGCSDALRRRAEGREHLTASMSRVALQKSASERAAKDYYKPRVTKPSRSVDAYDSYWESRKPPLKASLSLRKEPVATDVGDDLKDEIIRPSPSLLTMASSPHGSPDVLPPASPSNGPALLRGTYFSTQDDVDLYTDSEPRATYRRQDALRPDVWLLRNDAHSLYHKRSPPAKESALSKCQSCGLSCSSSLCQRCDSLLTCPPASKPSAFPSKASTHDSLAHGASLREKYPGQTQGLDRLPHLHSKSKPSTTPTSRCGFCNRPGATNTCTQCSKVSCDACLSAYHYDPCYKKSELHKFMPNNQLNYKSTQLSHLVYR
B2: PTP1B (PTPN1) (enzyme, UniProt P18031 1-435)
chain: MEMEKEFEQIDKSGSWAAIYQDIRHEASDFPCRVAKLPKNKNRNRYRDVSPFDHSRIKLHQEDNDYINASLIKMEEAQRSYILTQGPLPNTCGHFWEMVWEQKSRGVVMLNRVMEKGSLKCAQYWPQKEEKEMIFEDTNLKLTLISEDIKSYYTVRQLELENLTTQETREILHFHYTTWPDFGVPESPASFLNFLFKVRESGSLSPEHGPVVVHCSAGIGRSGTFCLADTCLLLMDKRKDPSSVDIKKVLLEMRKFRMGLIQTADQLRFSYLAVIEGAKFIMGDSSVQDQWKELSHEDLEPPPEHIPPPPRPPKRILEPHNGKCREFFPNHQWVKEETQEDKDCPIKEEKGSPLNAAPYGIESMSQDTEVRSRVVGGSLRGAQAASPAKGEPSLPEKDEDHALSYWKPFLVNMCVATVLTAGAYLCYRFLFNSNT
B3: SPTLC1 (enzyme, UniProt O15269 1-473)
chain: MATATEQWVLVEMVQALYEAPAYHLILEGILILWIIRLLFSKTYKLQERSDLTVKEKEELIEEWQPEPLVPPVPKDHPALNYNIVSGPPSHKTVVNGKECINFASFNFLGLLDNPRVKAAALASLKKYGVGTCGPRGFYGTFDVHLDLEDRLAKFMKTEEAIIYSYGFATIASAIPAYSKRGDIVFVDRAACFAIQKGLQASRSDIKLFKHNDMADLERLLKEQEIEDQKNPRKARVTRRFIVVEGLYMNTGTICPLPELVKLKYKYKARIFLEESLSFGVLGEHGRGVTEHYGINIDDIDLISANMENALASIGGFCCGRSFVIDHQRLSGQGYCFSASLPPLLAAAAIEALNIMEENPGIFAVLKEKCGQIHKALQGISGLKVVGESLSPAFHLQLEESTGSREQDVRLLQEIVDQCMNRSIALTQARYLEKEEKCLPPPSIRVVVTVEQTEEELERAASTIKEVAQAVLL
B4: ALDH1B1 (enzyme, UniProt P30837 18-517)
chain: RYSSAAALPSPILNPDIPYNQLFINNEWQDAVSKKTFPTVNPTTGEVIGHVAEGDRADVDRAVKAAREAFRLGSPWRRMDASERGRLLNRLADLVERDRVYLASLETLDNGKPFQESYALDLDEVIKVYRYFAGWADKWHGKTIPMDGQHFCFTRHEPVGVCGQIIPWNFPLVMQGWKLAPALATGNTVVMKVAEQTPLSALYLASLIKEAGFPPGVVNIITGYGPTAGAAIAQHVDVDKVAFTGSTEVGHLIQKAAGDSNLKRVTLELGGKSPSIVLADADMEHAVEQCHEALFFNMGQCCCAGSRTFVEESIYNEFLERTVEKAKQRKVGNPFELDTQQGPQVDKEQFERVLGYIQLGQKEGAKLLCGGERFGERGFFIKPTVFGGVQDDMRIAKEEIFGPVQPLFKFKKIEEVVERANNTRYGLAAAVFTRDLDKAMYFTQALQAGTVWVNTYNIVTCHTPFGGFKESGNGRELGEDGLKAYTEVKTVTIKVPQKNS
B5: CPEB4 (protein, UniProt Q17RY0 1-729)
chain: MGDYGFGVLVQSNTGNKSAFPVRFHPHLQPPHHHQNATPSPAAFINNNTAANGSSAGSAWLFPAPATHNIQDEILGSEKAKSQQQEQQDPLEKQQLSPSPGQEAGILPETEKAKSEENQGDNSSENGNGKEKIRIESPVLTGFDYQEATGLGTSTQPLTSSASSLTGFSNWSAAIAPSSSTIINEDASFFHQGGVPAASANNGALLFQNFPHHVSPGFGGSFSPQIGPLSQHHPHHPHFQHHHSQHQQQRRSPASPHPPPFTHRNAAFNQLPHLANNLNKPPSPWSSYQSPSPTPSSSWSPGGGGYGGWGGSQGRDHRRGLNGGITPLNSISPLKKNFASNHIQLQKYARPSSAFAPKSWMEDSLNRADNIFPFPDRPRTFDMHSLESSLIDIMRAENDTIKGRLNYSYPGSDSSLLINARTYGRRRGQSSLFPMEDGFLDDGRGDQPLHSGLGSPHCFSHQNGERVERYSRKVFVGGLPPDIDEDEITASFRRFGPLIVDWPHKAESKSYFPPKGYAFLLFQDESSVQALIDACIEEDGKLYLCVSSPTIKDKPVQIRPWNLSDSDFVMDGSQPLDPRKTIFVGGVPRPLRAVELAMIMDRLYGGVCYAGIDTDPELKYPKGAGRVAFSNQQSYIAAISARFVQLQHGEIDKRVEVKPYVLDDQLCDECQGARCGGKFAPFFCANVTCLQYYCEYCWAAIHSRAGREFHKPLVKEGGDRPRHISFRWN
B6: USP15 (enzyme, UniProt Q9Y4E8 1-981)
chain: MAEGGAADLDTQRSDIATLLKTSLRKGDTWYLVDSRWFKQWKKYVGFDSWDKYQMGDQNVYPGPIDNSGLLKDGDAQSLKEHLIDELDYILLPTEGWNKLVSWYTLMEGQEPIARKVVEQGMFVKHCKVEVYLTELKLCENGNMNNVVTRRFSKADTIDTIEKEIRKIFSIPDEKETRLWNKYMSNTFEPLNKPDSTIQDAGLYQGQVLVIEQKNEDGTWPRGPSTPKSPGASNFSTLPKISPSSLSNNYNNMNNRNVKNSNYCLPSYTAYKNYDYSEPGRNNEQPGLCGLSNLGNTCFMNSAIQCLSNTPPLTEYFLNDKYQEELNFDNPLGMRGEIAKSYAELIKQMWSGKFSYVTPRAFKTQVGRFAPQFSGYQQQDCQELLAFLLDGLHEDLNRIRKKPYIQLKDADGRPDKVVAEEAWENHLKRNDSIIVDIFHGLFKSTLVCPECAKISVTFDPFCYLTLPLPMKKERTLEVYLVRMDPLTKPMQYKVVVPKIGNILDLCTALSALSGIPADKMIVTDIYNHRFHRIFAMDENLSSIMERDDIYVFEININRTEDTEHVIIPVCLREKFRHSSYTHHTGSSLFGQPFLMAVPRNNTEDKLYNLLLLRMCRYVKISTETEETEGSLHCCKDQNINGNGPNGIHEEGSPSEMETDEPDDESSQDQELPSENENSQSEDSVGGDNDSENGLCTEDTCKGQLTGHKKRLFTFQFNNLGNTDINYIKDDTRHIRFDDRQLRLDERSFLALDWDPDLKKRYFDENAAEDFEKHESVEYKPPKKPFVKLKDCIELFTTKEKLGAEDPWYCPNCKEHQQATKKLDLWSLPPVLVVHLKRFSYSRYMRDKLDTLVDFPINDLDMSEFLINPNAGPCRYNLIAVSNHYGGMGGGHYTAFAKNKDDGKWYYFDDSSVSTASEDQIVSKAAYVLFYQRQDTFSGTGFFPLDRETKGASAATGIPLESDEDSNDNDNDIENENCMHTN
B7: CYP51A1 (enzyme, UniProt Q16850 1-509)
chain: MAAAAGMLLLGLLQAGGSVLGQAMEKVTGGNLLSMLLIACAFTLSLVYLIRLAAGHLVQLPAGVKSPPYIFSPIPFLGHAIAFGKSPIEFLENAYEKYGPVFSFTMVGKTFTYLLGSDAAALLFNSKNEDLNAEDVYSRLTTPVFGKGVAYDVPNPVFLEQKKMLKSGLNIAHFKQHVSIIEKETKEYFESWGESGEKNVFEALSELIILTASHCLHGKEIRSQLNEKVAQLYADLDGGFSHAAWLLPGWLPLPSFRRRDRAHREIKDIFYKAIQKRRQSQEKIDDILQTLLDATYKDGRPLTDDEVAGMLIGLLLAGQHTSSTTSAWMGFFLARDKTLQKKCYLEQKTVCGENLPPLTYDQLKDLNLLDRCIKETLRLRPPIMIMMRMARTPQTVAGYTIPPGHQVCVSPTVNQRLKDSWVERLDFNPDRYLQDNPASGEKFAYVPFGAGRHRCIGENFAYVQIKTIWSTMLRLYEFDLIDGYFPTVNYTTMIHTPENPVIRYKRRSK

What follows are molecules tested against RNF213-TurboID (UniProt Q63HN8) (assay: proximity labelling).
B1 was tested, and the binding was “binds”.
B2 was tested, and the binding was “binds”.

Target: RNF213-TurboID (UniProt Q63HN8)
Assay: proximity labelling
Remark: another data set of the same source
With MYOF (from UniProt Q9NZM1 1-2061) the binding was “binds”.
“MAP4K4 (from UniProt O95819 1-1239) (enzyme)” was tested, and the binding was “binds”.
For “ERK2 (from UniProt P28482 1-360) (enzyme)”, the binding was “no binding”.
With B1 the binding was “binds”.
For B3, the binding was “binds”.
For B4, the binding was “binds”.
B5 was tested, and the binding was “binds”.
B2 was tested, and the binding was “binds”.
For B6, the binding was “binds”.

The molecules below were run against TurboID-RNF213 (UniProt Q63HN8) (assay: proximity labelling).
For B7, the binding was “binds”.
